Among the test systems are OR52B2 clone 1210; OR52B4 clone 1508; OR52D1 clone 1164; OR52E1 clone 1113; OR52E5 P234L clone 1124; OR52E6 clone 1196; OR52E8 clone 1154; OR52H1 clone 1702; OR52I1 clone 1521; OR52I2 T132M clone 1324; OR52K1 clone 1163; OR52K2 clone 1211; OR52L2 R169W clone 1117; OR52M1 clone 1143; OR52N1 clone 1191; OR52N2 M228T clone 1569.
Common to all, as to assay: odorant receptor activation (CRE luciferase / Renilla) (fold of no-odor wells); higher = more activation
Settings in all cases: 100 µM

Assay [1] deals with OR52B6 T36A/L90H/A146T/H149R/V267I clone 1306.
Assay [2] deals with OR52E2 H174R/R264C clone 1184.
Assay [3] relates to OR52E4 V176I/R184M/R228H clone 1123.
Assay [4] relates to OR52L1 D73N/C125R/C146R/K168T/W282R clone 1116.

Structures are written as SMILES. Some of the results follow. Single wells; the ratio to wells without odorant was worked out here, and repeats agree poorly.

In the case of `CCCCCCCC=O` [octyl aldehyde], the odorant receptor activation in the assay with OR52B2 clone 1210 came out at 0.932; in the assay on OR52B4 clone 1508, 0.813; in [1], 0.215; with OR52D1 clone 1164 it was 1.12; in the assay on OR52E1 clone 1113, 1.14; in [2] it was 1.15. Also, the odorant receptor activation in assay [3] came to 0.797; with OR52E5 P234L clone 1124 it was 0.75; with OR52E6 clone 1196 it was 1.08; in the assay with OR52E8 clone 1154, 1.21; in the assay with OR52H1 clone 1702, 0.968; in the assay with OR52I1 clone 1521 it was 0.886. Besides, the odorant receptor activation with OR52I2 T132M clone 1324 amounted to 1.09; in the assay on OR52K1 clone 1163, 0.953; in the assay with OR52K2 clone 1211, 1.27; in assay [4], 1.17; in the assay on OR52L2 R169W clone 1117, 1.08; in the assay on OR52M1 clone 1143, 1.06. Besides, the odorant receptor activation in the assay with OR52N1 clone 1191 came out at 0.997; in the assay with OR52N2 M228T clone 1569, 0.884.

With `CC(C)=CCCC(C)=CC=O` [citral], the odorant receptor activation is 1.03 with OR52B2 clone 1210; 0.968 with OR52B4 clone 1508; 1.17 in assay [1]; 0.989 in the assay on OR52D1 clone 1164; 0.966 in the assay with OR52E1 clone 1113; 1.04 in assay [2]. Moreover, the odorant receptor activation in assay [3] was 1.01; with OR52E5 P234L clone 1124, 1.33; with OR52E6 clone 1196 it was 0.971; in the assay on OR52E8 clone 1154, 1.31; in the assay with OR52H1 clone 1702 it was 1.41; in the assay with OR52I1 clone 1521, 1.03. Moreover, the odorant receptor activation amounted to 1.17 with OR52I2 T132M clone 1324; 1.05 with OR52K1 clone 1163; 1.14 in the assay on OR52K2 clone 1211; 1.08 in assay [4]; 1.19 with OR52L2 R169W clone 1117; 1.16 with OR52M1 clone 1143. The odorant receptor activation in the assay with OR52N1 clone 1191 is 1.02; in the assay with OR52N2 M228T clone 1569, 1.3.

Regarding `CC(=O)C(C)=O` [diacetyl], the odorant receptor activation with OR52B2 clone 1210 was found to be 1.07; in the assay with OR52B4 clone 1508, 1.23; in [1] it was 0.842; in the assay on OR52D1 clone 1164 it was 1.08; in the assay with OR52E1 clone 1113, 0.871; in assay [2], 0.95. For the same compound, the odorant receptor activation in assay [3] was 0.999; in the assay on OR52E5 P234L clone 1124, 1.46; in the assay on OR52E6 clone 1196 it was 1.12; with OR52E8 clone 1154 it was 1.22; with OR52H1 clone 1702, 0.783; in the assay with OR52I1 clone 1521 it was 1.55. Besides, the odorant receptor activation with OR52I2 T132M clone 1324 turned out to be 1.31; in the assay on OR52K1 clone 1163 it was 1.19; with OR52K2 clone 1211, 1.17; in [4] it was 1.08; in the assay with OR52L2 R169W clone 1117, 1.13; in the assay with OR52M1 clone 1143, 1.09. Further, the odorant receptor activation in the assay on OR52N1 clone 1191 was determined as 1.14; with OR52N2 M228T clone 1569 it was 0.767.

As for `CCCCCCCCCC=O` [decyl aldehyde], the odorant receptor activation in the assay on OR52B2 clone 1210 is 1.27; in the assay with OR52B4 clone 1508 it was 0.962; in assay [1], 1.08; in the assay with OR52D1 clone 1164 it was 1.1; in the assay with OR52E1 clone 1113 it was 1.02; in assay [2], 0.915. Also, the odorant receptor activation in [3] came to 0.992; with OR52E5 P234L clone 1124 it was 1.63; with OR52E6 clone 1196, 1.15; in the assay with OR52E8 clone 1154 it was 1.27; in the assay on OR52H1 clone 1702 it was 0.959; with OR52I1 clone 1521 it was 1.3. In addition, the odorant receptor activation is 1.83 with OR52I2 T132M clone 1324; 1.16 in the assay with OR52K1 clone 1163; 1.24 in the assay with OR52K2 clone 1211; 1.48 in assay [4]; 1.22 with OR52L2 R169W clone 1117; 1.56 with OR52M1 clone 1143. In addition, the odorant receptor activation was 1.04 in the assay on OR52N1 clone 1191 and 0.772 with OR52N2 M228T clone 1569.

For `CC/C=C\CCO` [cis-3-hexen-1-ol], the odorant receptor activation with OR52B2 clone 1210 came out at 0.855; with OR52B4 clone 1508, 1; in assay [1] it was 0.927; with OR52D1 clone 1164 it was 0.811; with OR52E1 clone 1113, 0.754; in assay [2] it was 1.06. In addition, the odorant receptor activation in [3] is 1; with OR52E5 P234L clone 1124, 0.972; in the assay with OR52E6 clone 1196, 1.07; in the assay with OR52E8 clone 1154 it was 1.12; with OR52H1 clone 1702, 1.31; in the assay with OR52I1 clone 1521 it was 0.753. Further, the odorant receptor activation in the assay on OR52I2 T132M clone 1324 was determined as 1.12; in the assay with OR52K1 clone 1163, 0.839; in the assay with OR52K2 clone 1211, 0.943; in assay [4], 0.882; with OR52L2 R169W clone 1117 it was 0.922; with OR52M1 clone 1143, 0.778. In addition, the odorant receptor activation was determined as 0.99 in the assay with OR52N1 clone 1191 and 1.01 in the assay with OR52N2 M228T clone 1569.

`CC(C)CC(=O)O` [isovaleric acid]: the odorant receptor activation with OR52B2 clone 1210 was 1.01; with OR52B4 clone 1508 it was 0.699; in assay [1], 0.189; with OR52D1 clone 1164, 1.12; with OR52E1 clone 1113, 1.09; in assay [2] it was 1.09. Also, the odorant receptor activation in assay [3] came out at 1.21; in the assay with OR52E5 P234L clone 1124 it was 0.983; in the assay with OR52E6 clone 1196, 0.963; with OR52E8 clone 1154 it was 1.02; in the assay with OR52H1 clone 1702, 1.18; in the assay with OR52I1 clone 1521 it was 0.905. The odorant receptor activation is 0.814 with OR52I2 T132M clone 1324; 1.06 in the assay on OR52K1 clone 1163; 1.21 in the assay with OR52K2 clone 1211; 1.25 in assay [4]; 1.26 in the assay on OR52L2 R169W clone 1117; 1.03 in the assay on OR52M1 clone 1143. Further, the odorant receptor activation in the assay with OR52N1 clone 1191 was found to be 1.22; with OR52N2 M228T clone 1569, 0.868.

(Values after the odorant receptor screen of Mainland et al. (2015).)
